Some of the results follow. These are raw signals, not scaled to a control.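 Primary screen: polymyxin B was added at a level permeabilizing Salmonella outer membranes while sparing inner membranes. DMSO wells, both with and without polymyxin B, established maximum growth. Plate-to-plate variation meant each plate was ranked on its own, and the lowest-OD600 compounds were selected as hits.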
Tested on: Salmonella enterica serovar Typhimurium SL1344
Test: bacterial growth OD600 after 18 h with compound and polymyxin B; higher = more bacterial growth (less inhibition)
Settings: 50 µM, Mueller-Hinton broth

Compound	bacterial growth OD600 (polymyxin B 1 µg/mL)	bacterial growth OD600 (polymyxin B 0.75 µg/mL)
CCOC(=O)CC1(NC(=O)C2CCC(=O)N(CCN3CCOCC3)C2)CCCCC1 (configuration not stated)	1.23	–
COc1cccc(CCC2CCCN(C(=O)CN3CCOC3=O)C2)c1 (configuration not stated)	–	0.809
Cc1cc(C)c(C(=O)N2CCC(C3CCN(Cc4cccnc4)CC3)C2)o1 (configuration not stated)	–	0.841
Cc1cc(C)n(-c2cccc(C(=O)NCC3Cc4cccc(-c5ncccn5)c4O3)c2)n1 (configuration not stated)	–	0.859
COC(=O)C(CCSC)NC(=O)c1cc(Cl)ccc1OC1CCN(C(C)=O)CC1 (configuration not stated)	0.97	–
O=C1CCCCN1CC(=O)N1CCCC(CCc2ccc(F)c(F)c2)C1 (configuration not stated)	–	0.849
O=C(NCc1cccc(OC(F)(F)F)c1)C1CC(Cc2cccc(F)c2)=NO1 (configuration not stated)	–	0.752
COC(=O)CC(NC1CCN(c2ccc(NC(=O)Cc3cccc(Cl)c3)cc2)CC1)C(=O)OC (configuration not stated)	–	0.823
O=C(NC1CCCc2nc(-c3cccnc3)ncc21)C1CCC1 (configuration not stated)	–	0.848
COc1ccc(CN2CC[C@@H](N3CCCCCC3)[C@H](O)C2)c(OC)c1OC	–	0.86
O=C(Nc1ccnn1C1CCN(Cc2cccc(-c3ccco3)c2)CC1)C1CC1	0.87	–
Cc1cc(F)ccc1NC(=O)CCC1CCCN(C(=O)C(=O)c2ccco2)C1 (configuration not stated)	1.09	–
Cc1cccc(CN(CCN2CCCCC2)CC2CCCN(C3CCCC3)C2)n1 (configuration not stated)	–	0.879
O=C1CC(NCc2ccccc2Cn2cccn2)CN1Cc1ccc(F)cc1 (configuration not stated)	0.923	–
O=C(C1CC(Cc2ccc(F)cc2)=NO1)N1CCC(c2ccccc2F)C1 (configuration not stated)	–	0.829
O=C(c1ccc(NCC2CC2)nc1)N1CCCCC1CCn1cccn1 (configuration not stated)	0.925	–

Compound	bacterial growth OD600 (polymyxin B 1 µg/mL)	bacterial growth OD600 (polymyxin B 0.75 µg/mL)
CO[C@H]1[C@H](NC(=O)CSC)c2ccccc2C12CCN(Cc1ccc(OCCO)cc1)CC2	–	0.909
CC(C)C[C@H](NC(=O)c1csc2nc(-c3cccc(C(F)(F)F)c3)cn12)C(N)=O	-0.001	–
O=C(NC1CC(=O)N(Cc2cccc(F)c2)C1)c1cccs1 (configuration not stated)	1.11	–
COCCN1C(=O)CC(CC(=O)N2CCN(c3ccc(Cl)cn3)CC2)(c2ccccc2F)C1=O (configuration not stated)	–	0.688
Cc1nc(N2CCCCCCC2)ncc1C(C)NS(=O)(=O)N(C)C (configuration not stated)	0.925	–
O=C(Nc1ccc(Oc2cccnc2)cc1)C1CCCCN1Cc1ccccc1F (configuration not stated)	0.012	–
Cc1oc(-c2cccc(NC(=O)C3CCOCC3)c2)nc1CNC(=O)CCc1ccccc1	–	0.827
O=C(c1ccc2oc(CCc3ccccc3)nc2c1)N1C[C@@H]2CCC[C@H]1C2	–	0.42
CN(Cc1ccccc1)Cc1nc(C2CC2)no1	0.926	–
CC(NC(=O)c1ccc(N2CCC(NC3CCCC3)CC2)cc1)c1ccccc1 (configuration not stated)	–	0.884
O=C(c1coc(COc2cccc(F)c2F)n1)N1CCCCO1	0.842	–
CCOC(=O)N1CCC(N(C)CC2CCN(CCc3ccc(F)cc3)CC2)CC1	0.92	–
COc1ccc(NC(=O)CCC2CCCN(C(=O)c3ccoc3C)C2)cc1Cl (configuration not stated)	1.09	–
Cc1cccc(CN2CCOC(CCCc3ccccc3)C2)n1 (configuration not stated)	–	0.892
CCN1CCN(C(=O)c2ccc(N3CCC(NCc4ccc(F)c(F)c4)CC3)cc2)CC1	–	0.943
COc1cccc([C@@H](C)NC(=O)C2CCN(c3nc(C)c4ccc(S(C)(=O)=O)cc4n3)CC2)c1	–	0.983

Whole records from above.
CC(NC(=O)c1ccc(N2CCC(NC3CCCC3)CC2)cc1)c1ccccc1 (configuration not stated) as listed: bacterial growth OD600 (polymyxin B 0.75 µg/mL): 0.884
Cc1nc(N2CCCCCCC2)ncc1C(C)NS(=O)(=O)N(C)C (configuration not stated) as listed: bacterial growth OD600 (polymyxin B 1 µg/mL): 0.925

From the supplement of paper PMC12889115
